{"sequences": {"note": "By UniProt entry, the sequences of proteins in these tests, tags left out. Where a name states a change or a piece, a line headed by the entry shows the natural chain unless it says otherwise.", "UniProt P08592": "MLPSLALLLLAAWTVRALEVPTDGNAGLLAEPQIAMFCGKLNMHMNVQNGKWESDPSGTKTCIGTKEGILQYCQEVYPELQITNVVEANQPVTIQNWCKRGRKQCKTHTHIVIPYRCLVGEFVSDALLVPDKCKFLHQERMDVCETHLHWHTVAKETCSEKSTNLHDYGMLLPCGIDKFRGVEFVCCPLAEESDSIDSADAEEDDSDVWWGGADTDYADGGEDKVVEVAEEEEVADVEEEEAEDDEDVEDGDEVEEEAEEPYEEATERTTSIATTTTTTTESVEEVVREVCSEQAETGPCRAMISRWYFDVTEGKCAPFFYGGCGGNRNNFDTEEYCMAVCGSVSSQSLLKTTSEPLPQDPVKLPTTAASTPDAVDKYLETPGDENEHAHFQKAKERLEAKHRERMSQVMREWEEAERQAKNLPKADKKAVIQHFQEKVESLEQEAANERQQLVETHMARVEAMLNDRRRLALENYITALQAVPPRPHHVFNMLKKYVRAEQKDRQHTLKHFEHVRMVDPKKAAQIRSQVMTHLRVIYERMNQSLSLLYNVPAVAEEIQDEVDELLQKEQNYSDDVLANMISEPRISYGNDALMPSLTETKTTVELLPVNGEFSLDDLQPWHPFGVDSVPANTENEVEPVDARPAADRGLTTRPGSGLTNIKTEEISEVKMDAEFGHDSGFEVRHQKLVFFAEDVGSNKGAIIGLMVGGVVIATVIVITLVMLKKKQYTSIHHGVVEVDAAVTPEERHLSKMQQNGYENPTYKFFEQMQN"}, "source": "paper PMC9599860", "target": "T1, caveolin-1 (rat (endogenous in rat cerebral cortex)) (UniProt P41350)", "T1 sequence": "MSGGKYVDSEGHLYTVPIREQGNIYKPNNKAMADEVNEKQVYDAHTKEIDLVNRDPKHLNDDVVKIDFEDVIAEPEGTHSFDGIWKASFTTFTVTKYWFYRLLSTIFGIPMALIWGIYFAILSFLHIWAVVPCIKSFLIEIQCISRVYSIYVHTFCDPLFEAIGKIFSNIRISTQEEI", "assay": "co-IP; endogenous caveolin-1 immunoprecipitated with anti-caveolin-1 antibody on protein G magnetic particles (Sileks kit) from the cytoplasmic fraction of rat penumbra tissue 24 h and 7 days after photothrombotic stroke and of the cortex of sham-operated rats; co-precipitated C-APP, N-APP or ADAM10 detected by immunoblotting; normal mouse IgG as negative control", "note": "Results are given in words; binding and its absence hold for the method and conditions named. Binding seen in cells or lysates may run through a third protein. Binding can be weak; no strength is given.", "data": [{"substance": "C-terminal fragment of amyloid precursor protein (rat (endogenous in rat cerebral cortex)) (domain or fragment)", "values": [{"measurement": "binding", "result": "binds"}]}, {"substance": "N-terminal fragment of amyloid precursor protein (from UniProt P08592) (domain or fragment)", "values": [{"measurement": "binding", "result": "binds"}]}]}
